Sequences of proteins named here, by UniProt entry; tags and fusion partners are left off. A change or cut given only in a name is not applied to a line headed by its entry.
UniProt Q9UQE7: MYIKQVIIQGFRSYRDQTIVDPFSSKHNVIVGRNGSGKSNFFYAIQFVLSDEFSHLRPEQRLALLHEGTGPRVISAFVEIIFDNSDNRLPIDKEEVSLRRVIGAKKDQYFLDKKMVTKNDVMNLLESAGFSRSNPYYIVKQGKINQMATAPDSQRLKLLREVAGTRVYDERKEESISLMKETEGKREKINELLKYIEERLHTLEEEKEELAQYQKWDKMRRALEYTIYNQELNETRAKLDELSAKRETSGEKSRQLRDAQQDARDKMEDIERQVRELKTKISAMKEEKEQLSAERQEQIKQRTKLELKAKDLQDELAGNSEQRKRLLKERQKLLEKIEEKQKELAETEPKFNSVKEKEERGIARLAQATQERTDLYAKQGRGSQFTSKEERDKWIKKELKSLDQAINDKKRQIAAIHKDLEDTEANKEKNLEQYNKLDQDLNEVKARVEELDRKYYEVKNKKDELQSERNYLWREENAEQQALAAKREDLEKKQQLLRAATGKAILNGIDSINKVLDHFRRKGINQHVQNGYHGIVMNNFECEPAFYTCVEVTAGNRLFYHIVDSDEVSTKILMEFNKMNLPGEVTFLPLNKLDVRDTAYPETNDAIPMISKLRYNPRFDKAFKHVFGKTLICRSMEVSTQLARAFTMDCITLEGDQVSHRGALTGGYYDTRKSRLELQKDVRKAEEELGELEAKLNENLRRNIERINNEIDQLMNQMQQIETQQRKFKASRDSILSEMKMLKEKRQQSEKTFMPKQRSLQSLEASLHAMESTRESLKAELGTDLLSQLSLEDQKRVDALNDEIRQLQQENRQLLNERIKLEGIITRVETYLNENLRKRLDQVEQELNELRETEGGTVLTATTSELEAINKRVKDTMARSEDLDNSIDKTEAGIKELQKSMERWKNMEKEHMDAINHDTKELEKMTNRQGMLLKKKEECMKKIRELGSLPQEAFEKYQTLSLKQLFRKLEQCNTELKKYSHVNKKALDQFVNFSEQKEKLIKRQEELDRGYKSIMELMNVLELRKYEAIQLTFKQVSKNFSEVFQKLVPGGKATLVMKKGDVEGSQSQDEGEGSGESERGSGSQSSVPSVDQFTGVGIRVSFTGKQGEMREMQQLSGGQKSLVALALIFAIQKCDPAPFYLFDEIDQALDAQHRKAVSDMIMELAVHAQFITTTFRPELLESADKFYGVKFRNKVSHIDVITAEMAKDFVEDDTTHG
UniProt Q9UJA5: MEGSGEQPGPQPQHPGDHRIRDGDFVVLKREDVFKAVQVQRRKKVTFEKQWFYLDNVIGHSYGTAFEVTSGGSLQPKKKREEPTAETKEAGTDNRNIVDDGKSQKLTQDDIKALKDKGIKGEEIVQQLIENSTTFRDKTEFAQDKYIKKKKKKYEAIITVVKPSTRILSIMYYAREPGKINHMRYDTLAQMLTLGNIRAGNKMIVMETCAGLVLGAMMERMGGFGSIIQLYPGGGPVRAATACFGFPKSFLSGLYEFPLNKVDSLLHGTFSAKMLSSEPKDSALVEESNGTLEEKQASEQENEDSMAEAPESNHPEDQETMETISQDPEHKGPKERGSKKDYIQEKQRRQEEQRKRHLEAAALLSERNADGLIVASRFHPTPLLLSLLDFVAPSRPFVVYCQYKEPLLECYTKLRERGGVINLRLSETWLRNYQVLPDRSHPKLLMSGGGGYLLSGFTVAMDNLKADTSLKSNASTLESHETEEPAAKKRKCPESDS
UniProt Q9ULX6: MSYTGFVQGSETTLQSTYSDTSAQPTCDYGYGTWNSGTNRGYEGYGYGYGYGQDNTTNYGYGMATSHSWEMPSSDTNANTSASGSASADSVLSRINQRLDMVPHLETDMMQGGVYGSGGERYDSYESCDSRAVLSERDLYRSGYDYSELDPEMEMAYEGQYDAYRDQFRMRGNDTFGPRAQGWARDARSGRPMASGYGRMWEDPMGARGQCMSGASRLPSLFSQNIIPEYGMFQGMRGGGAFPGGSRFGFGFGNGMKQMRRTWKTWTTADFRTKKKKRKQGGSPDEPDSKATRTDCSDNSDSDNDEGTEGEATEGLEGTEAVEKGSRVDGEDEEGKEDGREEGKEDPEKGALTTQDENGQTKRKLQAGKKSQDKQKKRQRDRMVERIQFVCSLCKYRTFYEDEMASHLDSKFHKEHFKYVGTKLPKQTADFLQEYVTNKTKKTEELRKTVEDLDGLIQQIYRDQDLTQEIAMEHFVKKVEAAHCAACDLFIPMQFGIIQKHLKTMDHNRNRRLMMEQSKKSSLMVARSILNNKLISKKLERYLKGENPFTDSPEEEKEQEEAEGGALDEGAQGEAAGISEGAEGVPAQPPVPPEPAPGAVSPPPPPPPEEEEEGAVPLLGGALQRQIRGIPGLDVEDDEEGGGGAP
UniProt Q9UKL0, whole entry: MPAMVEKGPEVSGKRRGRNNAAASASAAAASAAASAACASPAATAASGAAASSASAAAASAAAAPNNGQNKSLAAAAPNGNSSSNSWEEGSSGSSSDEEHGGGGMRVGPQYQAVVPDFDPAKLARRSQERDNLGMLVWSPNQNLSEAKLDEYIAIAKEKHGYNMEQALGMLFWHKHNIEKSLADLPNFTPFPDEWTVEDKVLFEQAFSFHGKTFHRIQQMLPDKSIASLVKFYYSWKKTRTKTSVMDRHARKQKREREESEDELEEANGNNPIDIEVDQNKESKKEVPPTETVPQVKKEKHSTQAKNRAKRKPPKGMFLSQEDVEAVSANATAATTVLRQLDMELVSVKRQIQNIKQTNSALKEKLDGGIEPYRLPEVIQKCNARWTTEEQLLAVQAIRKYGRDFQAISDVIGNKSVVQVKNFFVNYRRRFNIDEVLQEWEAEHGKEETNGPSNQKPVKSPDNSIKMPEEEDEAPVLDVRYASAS
UniProt Q9UHH9: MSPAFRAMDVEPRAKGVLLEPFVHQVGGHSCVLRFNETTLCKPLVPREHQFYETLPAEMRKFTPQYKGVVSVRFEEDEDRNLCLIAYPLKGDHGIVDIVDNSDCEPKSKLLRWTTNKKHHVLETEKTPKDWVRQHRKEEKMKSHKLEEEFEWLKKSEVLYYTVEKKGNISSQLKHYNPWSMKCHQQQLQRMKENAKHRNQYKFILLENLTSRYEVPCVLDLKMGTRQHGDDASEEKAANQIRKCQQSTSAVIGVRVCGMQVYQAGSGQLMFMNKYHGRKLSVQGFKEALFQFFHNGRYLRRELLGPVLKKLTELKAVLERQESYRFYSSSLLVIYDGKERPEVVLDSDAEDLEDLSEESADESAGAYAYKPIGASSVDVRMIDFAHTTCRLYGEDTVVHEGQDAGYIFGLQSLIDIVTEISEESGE
UniProt Q9UK11: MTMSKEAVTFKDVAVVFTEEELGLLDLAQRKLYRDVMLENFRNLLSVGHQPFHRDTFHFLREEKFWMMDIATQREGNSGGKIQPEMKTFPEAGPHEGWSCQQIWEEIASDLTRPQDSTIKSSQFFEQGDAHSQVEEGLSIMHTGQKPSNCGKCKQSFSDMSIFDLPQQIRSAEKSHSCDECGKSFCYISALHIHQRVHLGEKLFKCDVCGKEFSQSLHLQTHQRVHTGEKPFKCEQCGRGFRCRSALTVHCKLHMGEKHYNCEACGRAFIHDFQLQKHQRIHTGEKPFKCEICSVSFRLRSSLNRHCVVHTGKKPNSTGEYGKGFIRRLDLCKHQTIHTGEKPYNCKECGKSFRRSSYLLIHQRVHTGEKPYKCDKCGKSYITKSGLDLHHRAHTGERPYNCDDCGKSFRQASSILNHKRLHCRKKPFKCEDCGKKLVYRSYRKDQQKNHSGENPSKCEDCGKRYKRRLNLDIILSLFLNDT
UniProt Q9UMN6, whole entry: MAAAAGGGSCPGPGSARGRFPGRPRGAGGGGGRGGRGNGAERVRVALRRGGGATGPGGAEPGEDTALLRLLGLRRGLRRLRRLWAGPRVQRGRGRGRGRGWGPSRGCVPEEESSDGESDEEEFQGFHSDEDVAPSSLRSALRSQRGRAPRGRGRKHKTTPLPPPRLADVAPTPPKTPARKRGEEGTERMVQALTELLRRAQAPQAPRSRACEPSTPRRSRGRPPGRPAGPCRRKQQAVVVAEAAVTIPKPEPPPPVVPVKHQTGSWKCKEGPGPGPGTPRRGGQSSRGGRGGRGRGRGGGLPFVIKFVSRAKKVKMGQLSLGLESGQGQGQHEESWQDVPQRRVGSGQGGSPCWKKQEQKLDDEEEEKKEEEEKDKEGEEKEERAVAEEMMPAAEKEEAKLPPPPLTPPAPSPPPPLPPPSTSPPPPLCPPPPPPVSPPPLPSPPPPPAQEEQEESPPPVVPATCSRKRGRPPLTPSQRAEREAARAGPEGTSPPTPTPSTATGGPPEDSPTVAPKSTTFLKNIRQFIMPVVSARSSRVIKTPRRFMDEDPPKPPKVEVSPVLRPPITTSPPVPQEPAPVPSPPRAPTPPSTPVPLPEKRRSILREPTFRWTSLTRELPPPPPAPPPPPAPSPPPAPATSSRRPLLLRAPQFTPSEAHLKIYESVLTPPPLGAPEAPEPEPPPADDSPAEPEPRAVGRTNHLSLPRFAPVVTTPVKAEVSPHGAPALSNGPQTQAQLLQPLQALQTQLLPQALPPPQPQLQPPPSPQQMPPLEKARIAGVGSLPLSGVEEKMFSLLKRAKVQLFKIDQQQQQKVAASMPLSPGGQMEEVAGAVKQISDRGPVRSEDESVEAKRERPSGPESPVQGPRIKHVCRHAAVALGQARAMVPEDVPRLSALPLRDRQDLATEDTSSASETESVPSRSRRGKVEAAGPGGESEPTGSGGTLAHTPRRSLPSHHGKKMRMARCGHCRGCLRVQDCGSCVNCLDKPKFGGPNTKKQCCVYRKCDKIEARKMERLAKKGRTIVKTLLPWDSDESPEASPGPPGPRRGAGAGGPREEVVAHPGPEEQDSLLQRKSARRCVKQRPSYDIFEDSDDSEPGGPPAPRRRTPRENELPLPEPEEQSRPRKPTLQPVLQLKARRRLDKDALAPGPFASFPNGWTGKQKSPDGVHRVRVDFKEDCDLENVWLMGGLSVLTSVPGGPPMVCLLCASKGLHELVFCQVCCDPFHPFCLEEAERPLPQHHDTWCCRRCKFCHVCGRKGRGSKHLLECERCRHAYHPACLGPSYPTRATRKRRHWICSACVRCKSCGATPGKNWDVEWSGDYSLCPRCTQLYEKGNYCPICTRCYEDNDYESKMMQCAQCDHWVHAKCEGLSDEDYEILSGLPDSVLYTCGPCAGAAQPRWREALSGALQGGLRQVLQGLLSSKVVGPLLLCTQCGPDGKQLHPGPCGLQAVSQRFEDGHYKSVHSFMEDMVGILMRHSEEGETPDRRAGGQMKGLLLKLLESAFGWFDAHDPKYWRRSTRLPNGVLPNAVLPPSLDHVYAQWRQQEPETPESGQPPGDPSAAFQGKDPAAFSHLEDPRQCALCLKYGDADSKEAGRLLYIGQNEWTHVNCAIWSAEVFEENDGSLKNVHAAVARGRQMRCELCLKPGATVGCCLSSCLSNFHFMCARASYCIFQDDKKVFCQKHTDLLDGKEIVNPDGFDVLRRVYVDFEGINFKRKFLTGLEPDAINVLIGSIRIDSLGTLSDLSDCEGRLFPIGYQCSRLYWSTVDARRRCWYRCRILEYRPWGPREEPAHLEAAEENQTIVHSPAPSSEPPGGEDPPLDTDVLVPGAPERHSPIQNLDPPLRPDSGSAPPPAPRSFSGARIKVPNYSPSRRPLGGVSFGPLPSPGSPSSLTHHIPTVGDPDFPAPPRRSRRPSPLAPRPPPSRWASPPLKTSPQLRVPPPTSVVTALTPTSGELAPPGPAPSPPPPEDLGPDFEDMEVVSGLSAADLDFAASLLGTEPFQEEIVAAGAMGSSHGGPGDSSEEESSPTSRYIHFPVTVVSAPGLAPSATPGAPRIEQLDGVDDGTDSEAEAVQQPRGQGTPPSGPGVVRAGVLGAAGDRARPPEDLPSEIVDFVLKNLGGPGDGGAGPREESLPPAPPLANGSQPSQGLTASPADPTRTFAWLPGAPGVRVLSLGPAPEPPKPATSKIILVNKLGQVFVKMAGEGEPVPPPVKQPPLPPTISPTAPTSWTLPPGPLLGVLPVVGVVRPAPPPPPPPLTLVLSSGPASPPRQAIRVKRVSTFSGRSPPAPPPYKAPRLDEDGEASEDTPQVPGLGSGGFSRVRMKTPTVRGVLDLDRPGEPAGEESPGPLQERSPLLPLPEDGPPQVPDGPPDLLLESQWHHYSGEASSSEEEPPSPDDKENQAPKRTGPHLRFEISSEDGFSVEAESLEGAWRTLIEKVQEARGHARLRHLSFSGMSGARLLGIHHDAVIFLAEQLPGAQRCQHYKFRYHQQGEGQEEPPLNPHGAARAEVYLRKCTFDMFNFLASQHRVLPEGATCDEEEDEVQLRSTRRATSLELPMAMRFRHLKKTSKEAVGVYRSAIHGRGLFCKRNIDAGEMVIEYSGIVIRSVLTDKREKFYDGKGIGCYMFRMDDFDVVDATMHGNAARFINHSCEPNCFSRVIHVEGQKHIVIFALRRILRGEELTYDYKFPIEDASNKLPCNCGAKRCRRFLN

This is one part of the list. Small differences around the control level are noise.
Each target was assayed with Cc1nc(Nc2ncc(C(=O)Nc3c(C)cccc3Cl)s2)cc(N2CCN(CCO)CC2)n1 [dasatinib] (assay: log2 fold change of tryptic peptide abundance, ligand vs vehicle (limited proteolysis) (log2 ratio); higher = more trypsin-susceptible (destabilized)). Details: ligand concentration: 5 uM; sample: K562 cleared lysate.
“GTF3C4 (peptide sequence: CFLTYQSCQSLIYRR, peptide start residue: 773) (UniProt Q9UKN8)” showed a log2 fold change of 0.225.
In the case of “UniProt Q9UKT7 (peptide sequence: DSDRNSSEEGTAEK, peptide start residue: 7)”, the log2 fold change is reported as 0.665.
In the case of “FEM1B (peptide sequence: STPLIIAAR, peptide start residue: 47) (UniProt Q9UK73)”, the log2 fold change is reported as 0.131.
With “SMC3 (peptide sequence: LHTLEEEKEELAQYQKWDK, peptide start residue: 200) (UniProt Q9UQE7)” the log2 fold change was 0.202.
Work on “TRMT6 (peptide sequence: AATACFGFPK, peptide start residue: 239) (UniProt Q9UJA5)” yielded a log2 fold change of -0.416.
Work on “CPSF3 (peptide sequence: VMGFLADK, peptide start residue: 466) (UniProt Q9UKF6)” yielded a log2 fold change of -0.131.
“UniProt Q9UKN5 (peptide sequence: GVMCGLPER, peptide start residue: 80)” showed a log2 fold change of -0.299.
“AKAP8L (peptide sequence: TFYEDEMASHLDSK, peptide start residue: 398) (UniProt Q9ULX6)” was tested, and the log2 fold change was 0.255.
“RCOR1 (peptide sequence: EVPPTETVPQVK, peptide start residue: 286) (UniProt Q9UKL0)” gave a log2 fold change of 0.219.
In the case of “TBC1D24 (peptide sequence: ILACNDPGRR, peptide start residue: 158) (UniProt Q9ULP9)”, the log2 fold change is reported as 0.179.
“PA2G4 (peptide sequence: MGVVECAK, peptide start residue: 291) (UniProt Q9UQ80)” gave a log2 fold change of 0.13.
“UniProt Q9UNQ2 (peptide sequence: IHCSVHNIIIPEDFSIADK, peptide start residue: 257)” was tested, and the log2 fold change was 1.12.
With “YEATS2 (peptide sequence: LSNNMEQRPSR, peptide start residue: 165) (UniProt Q9ULM3)” the log2 fold change was -0.2.
“ACIN1 (peptide sequence: KPSISITTESLK, peptide start residue: 861) (UniProt Q9UKV3)” showed a log2 fold change of -0.152.
“SNX6 (peptide sequence: NLVELAELELKHAK, peptide start residue: 376) (UniProt Q9UNH7)” gave a log2 fold change of -0.37.
In the case of “MAGED2 (peptide sequence: SSEAVIWEVLRK, peptide start residue: 386) (UniProt Q9UNF1)”, the log2 fold change is reported as -0.242.
“UniProt Q9UNT1 (peptide sequence: AHACIMVFDVQRK, peptide start residue: 94)” showed a log2 fold change of 0.077.
In the case of “FBXO4 (peptide sequence: LEAAILSGWK, peptide start residue: 23) (UniProt Q9UKT5)”, the log2 fold change is reported as -0.0486.
“UniProt Q9ULS6 (peptide sequence: FDGQPLGNFRR, peptide start residue: 161)” gave a log2 fold change of 0.0216.
“UniProt Q9UHH9 (peptide sequence: FNETTLCKPLVPR, peptide start residue: 35)” showed a log2 fold change of 0.23.
Work on “TLK1 (peptide sequence: ATEVQFPVKPVVSSEAK, peptide start residue: 692) (UniProt Q9UKI8)” yielded a log2 fold change of 0.153.
“UniProt Q9UIF7 (peptide sequence: SHISTDAHSLNSAAQ, peptide start residue: 532)” gave a log2 fold change of 0.238.
“ANKRD50 (peptide sequence: MLAMSYTCQAK, peptide start residue: 435) (UniProt Q9ULJ7)” gave a log2 fold change of 0.521.
“UniProt Q9UK11 (peptide sequence: DVMLENFR, peptide start residue: 35)” showed a log2 fold change of -0.235.
Work on “TSPYL4 (peptide sequence: AFLQLER, peptide start residue: 224) (UniProt Q9UJ04)” yielded a log2 fold change of -0.205.
With “NFU1 (peptide sequence: TMDFPTPAAAFR, peptide start residue: 85) (UniProt Q9UMS0)” the log2 fold change was -1.1.
In the case of “UniProt Q9UPG8 (peptide sequence: KHPCDHCDRR, peptide start residue: 190)”, the log2 fold change is reported as -0.972.
“KMT2B (peptide sequence: ATSLELPMAMR, peptide start residue: 2555) (UniProt Q9UMN6)” was tested, and the log2 fold change was -0.26.
In the case of “IPO11 (peptide sequence: LTVDDFEFR, peptide start residue: 541) (UniProt Q9UI26)”, the log2 fold change is reported as -0.474.
